Literature values in US20080124303A1 (priority 2005, published 2008).
At least one compound was matched to its structure with a doubt left.

Tested on: HIV-1
Settings: AZT alone

## Cc1cn([C@H]2C[C@H](N=[N+]=[N-])[C@@H](CO)O2)c(=O)[nH]c1=O [AZT, azidothymidine]
  reduction of viral load: about 1 log
